For test [1], the target named is β-tubulin (endogenous, co-precipitated from HCS-2/8 or HEK293 cell lysates) (UniProt P07437). In words: pull-down with S-protein, western blot (figure legend). A general note: In western blotting, separated proteins are transferred to a membrane and probed.
Test [2] shares this target. The test is described as follows: pull-down with S-protein agarose, western blot with anti-β-tubulin antibody.

Sequences of proteins named here, by UniProt entry; tags and fusion partners are left off.
UniProt P07437: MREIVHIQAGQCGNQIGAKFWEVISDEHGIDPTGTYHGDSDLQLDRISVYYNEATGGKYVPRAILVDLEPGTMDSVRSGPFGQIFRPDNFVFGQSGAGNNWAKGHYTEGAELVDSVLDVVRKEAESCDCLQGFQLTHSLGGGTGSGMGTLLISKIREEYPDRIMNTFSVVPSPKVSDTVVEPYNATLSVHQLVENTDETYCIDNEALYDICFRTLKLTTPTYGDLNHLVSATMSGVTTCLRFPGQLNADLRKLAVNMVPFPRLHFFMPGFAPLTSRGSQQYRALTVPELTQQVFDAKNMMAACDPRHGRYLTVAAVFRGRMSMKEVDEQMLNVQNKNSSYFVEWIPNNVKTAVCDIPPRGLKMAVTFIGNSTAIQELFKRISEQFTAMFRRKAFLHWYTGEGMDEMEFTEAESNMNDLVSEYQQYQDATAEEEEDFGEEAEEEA

These are yes or no findings as the source states them, for the method shown. In cells and extracts the contact can be indirect. Some entries that bind do so weakly or less than the wild type. Sequences can lack the tags named with a protein.

B1: amino-terminal S-tagged DIVA (Dual Intracellular Von Willebrand factor domain A) expressed from pTriEx4 in HCS-2/8 or HEK293 cells (protein, not shown: small tags and cut ends)
chain: MGLALKFILDHHFQEASGSRASQEVPQIAVVISSGPVEDHVHGPAKALRKAGILLYAIGVRDAVWAELREIASSPQENFTSFVPNFSGLSNLAQKLRQELCDTLAKAAPHVDHVSPACREAALADIVFLVDSSTSIGPQNFQKVKNFLYSVILGLDISSDRVRVGLAQYNDNIYPAFQLNQHPLKSMILEQIQNLPYRTGGTNTGSALEFIRTNYLTEESGSRAKDRVPQIVILVTDGESNDEVQEVADRLKEDGVVVLCGRGQCPGCPRVAKNNQ
Consider B1, for which the binding result in test [1] and in test [2] was “binds” throughout.
